Amino acid sequences for entries named in this document (tags omitted). Residues count along the entry.
UniProt O94762, 11-609: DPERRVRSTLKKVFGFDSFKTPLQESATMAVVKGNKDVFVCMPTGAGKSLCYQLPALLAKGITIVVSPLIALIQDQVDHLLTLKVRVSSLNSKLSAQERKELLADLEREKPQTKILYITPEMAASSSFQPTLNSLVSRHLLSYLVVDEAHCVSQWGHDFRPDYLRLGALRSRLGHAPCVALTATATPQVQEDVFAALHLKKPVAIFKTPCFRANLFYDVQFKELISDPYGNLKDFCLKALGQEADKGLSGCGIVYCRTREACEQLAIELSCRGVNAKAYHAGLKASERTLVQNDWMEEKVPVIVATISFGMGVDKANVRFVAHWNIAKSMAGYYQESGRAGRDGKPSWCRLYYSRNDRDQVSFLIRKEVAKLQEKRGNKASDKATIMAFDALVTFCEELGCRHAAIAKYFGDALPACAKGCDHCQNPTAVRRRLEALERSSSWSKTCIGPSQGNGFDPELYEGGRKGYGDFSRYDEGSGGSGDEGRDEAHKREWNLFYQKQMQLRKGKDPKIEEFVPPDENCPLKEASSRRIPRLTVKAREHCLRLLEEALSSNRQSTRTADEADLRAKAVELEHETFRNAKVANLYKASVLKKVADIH

According to paper PMC5397160, “Insights into the RecQ helicase mechanism revealed by the structure of the helicase domain of human RECQL5”:

Biological target: RECQL5 11-609 (human) (UniProt O94762)
Assay: fluorescence polarization
Details: FP: 10 mM HEPES pH 7.5, 150 mM NaCl, 25 C, 10 nM FITC probe, no nucleotide or Mg stated, recombinant protein, residues 11-609, label: 5' fluorescein (FITC) on RQ-1
[1] = remaining substrates: low micromolar apparent Kd

Sequence | binding result | binding result [1]
ATCGATAGTCGGATCCTCTAGACAGCTCCATGTAGCAAGGCACTGGTAGAATTCGGCAGCGTC / GACGCTGCCGAATTCTACCAGTGCCTTGCTATTTTTTTTTTTTCATGGAGCTGTCTAGAGGATCCGACTATCGAT [looped duplex (RQ-1 + PQ-8)] | binds | –
ATCGATAGTCGGATCCTCTAGACAGCTCCATGTAGCAAGGCACTGGTAGAATTCGGCAGCGTC / GGAGCTGTCTAGAGGATCCGACTATCGA [3' overhang (RQ-1 + RQ-4)] | – | binds more weakly
ATCGATAGTCGGATCCTCTAGACAGCTCCATGTAGCAAGGCACTGGTAGAATTCGGCAGCGTC / GACGCTGCCGAATTCTACCAGTGCCTTG [5' overhang (RQ-1 + RQ-9)] | – | binds more weakly

The exact form of at least one protein or probe is not confirmed. The comparison behind a weaker result is the experiment's own reference, which may not be listed here. At least one verdict was read from the data and is not stated in words by the source.
